Assay results: the supplement of paper PMC7238544
Structures can show the parent of a compound that is named as a salt. ± gives the standard deviation of the averaged measurements. Some of the results follow. The data scatter; read single values as rough.

test system: hAMSC donor 2; assay: transfection efficiency (EGFP+ cells / Hoechst count) fold change vs vehicle control (ratio); hAMSC are human adipose-derived mesenchymal stem cells given an EGFP-luciferase plasmid by lipofection; higher = enhanced transfection; settings: priming compound concentration 0.2 µM

**Q.** `COC(=O)N1CCN(C(=O)Cc2ccc(Cl)c(Cl)c2)C(CN2CCCC2)C1` (configuration not stated) was tested. Which transfection efficiency did it give?
**A.** Its transfection efficiency is 0.988 ± 0.29.

**Q.** With `c1ccc(Cn2ccnc2)cc1` [Benzylimidazole] as the compound, how does the transfection efficiency read?
**A.** The transfection efficiency was 1.51 ± 0.35.

**Q.** How did the transfection efficiency turn out when `O=C1CN=C(c2ccccc2)c2cc([N+](=O)[O-])ccc2N1` [Nitrazepam] was run?
**A.** The transfection efficiency was 0.865 ± 0.24.

**Q.** How did the transfection efficiency turn out when `C[C@]12CC[C@H](O)CC1=CC[C@@H]1[C@@H]2CC[C@]2(C)C(=O)CC[C@@H]12` [Dehydroepiandrosterone] was run?
**A.** Its transfection efficiency is 1.27 ± 0.21.

**Q.** How did the transfection efficiency turn out when `O=C1CC[C@@]2(O)[C@H]3Cc4ccc(O)c5c4[C@@]2(CCN3CC2CC2)[C@H]1O5` [Naltrexone hydrochloride] was run?
**A.** The transfection efficiency was 1.14 ± 0.22.

**Q.** Which transfection efficiency does the source give for `N=C(NCc1ccc(Cl)cc1)SCCCc1c[nH]cn1` [Clobenpropit] here?
**A.** Its transfection efficiency is 0.964 ± 0.14.

**Q.** How did the transfection efficiency turn out when `C=C(C)[C@@H]1[C@H]2OC(=O)[C@@H]1[C@]1(O)C[C@H]3O[C@]34C(=O)O[C@H]2[C@]14C.CC(C)(O)[C@@H]1[C@H]2OC(=O)[C@@H]1[C@]1(O)C[C@H]3O[C@]34C(=O)O[C@H]2[C@]14C` [Picrotin - Picrotoxinin] was run?
**A.** Its transfection efficiency is 0.729 ± 0.15.

**Q.** For `C[C@]12Cc3c[nH]nc3C[C@@H]1CC[C@@H]1[C@@H]2CC[C@@]2(C)[C@H]1CC[C@]2(C)O` [Stanozolol], which transfection efficiency is on record?
**A.** The transfection efficiency was 0.823 ± 0.18.

**Q.** For `C[N+]1(C)CCCC(OC(=O)C(O)(c2ccccc2)c2ccccc2)C1` (configuration not stated) [Mepenzolate bromide], which transfection efficiency is on record?
**A.** Its transfection efficiency is 0.9877 ± 0.0035.

**Q.** How did the transfection efficiency turn out when `CN[C@@H]1C[C@@H](c2ccc(Cl)c(Cl)c2)c2ccccc21` [Indatraline hydrochloride] was run?
**A.** Its transfection efficiency is 1.14 ± 0.25.

**Q.** `C#CCN(C)[C@H](C)Cc1ccccc1` [Selegiline hydrochloride] was tested. Which transfection efficiency did it give?
**A.** Its transfection efficiency is 1.06 ± 0.15.

**Q.** Which transfection efficiency does the source give for `C[C@]12CC[C@H]3[C@@H](CCC4=CC(=O)CC[C@@]43C)[C@@H]1CC[C@@H]2O` [Testosterone] here?
**A.** Its transfection efficiency is 0.844 ± 0.1.

**Q.** `C[C@]12C/C(=C/O)C(=O)C[C@@H]1CC[C@@H]1[C@@H]2CC[C@@]2(C)[C@H]1CC[C@]2(C)O` [Oxymetholone] was tested. Which transfection efficiency did it give?
**A.** Its transfection efficiency is 1.24 ± 0.32.

**Q.** Which transfection efficiency does the source give for `FC(F)(F)c1cccc(N2CCNCC2)c1` [TFMPP hydrochloride] here?
**A.** Its transfection efficiency is 0.923 ± 0.12.

**Q.** With `CN(C)C(=O)Oc1ccc[n+](C)c1` [Pyridostigmine bromide] as the compound, how does the transfection efficiency read?
**A.** Its transfection efficiency is 0.939 ± 0.12.

**Q.** How did the transfection efficiency turn out when `Oc1cc(Cl)ccc1Oc1ccc(Cl)cc1Cl` [Triclosan] was run?
**A.** The transfection efficiency was 1.03 ± 0.42.

**Q.** `CCOC(=O)c1cncn1[C@H](C)c1ccccc1` [Etomidate] was tested. Which transfection efficiency did it give?
**A.** Its transfection efficiency is 0.852 ± 0.11.

**Q.** With `CCOC(=O)C1(c2ccccc2)CCN(CCC(C#N)(c2ccccc2)c2ccccc2)CC1` [Diphenoxylate hydrochloride] as the compound, how does the transfection efficiency read?
**A.** Its transfection efficiency is 0.871 ± 0.14.

**Q.** With `CCCCC/C=C\C/C=C\C/C=C\C/C=C\CCCC(=O)Nc1ccc(O)cc1` as the compound, how does the transfection efficiency read?
**A.** Its transfection efficiency is 0.929 ± 0.22.

**Q.** How did the transfection efficiency turn out when `CCCCCCCCCOc1ccc2[nH]cc(CCN)c2c1` [5-Nonyloxytryptamine hydrochloride] was run?
**A.** Its transfection efficiency is 1.55 ± 0.49.

**Q.** Which transfection efficiency does the source give for `COc1ccc(CCN)cc1OC` [Homoveratrylamine] here?
**A.** Its transfection efficiency is 0.971 ± 0.18.

**Q.** How did the transfection efficiency turn out when `O=C(O)C(Cl)Cl` [Dichloroacetic acid] was run?
**A.** The transfection efficiency was 0.929 ± 0.21.

**Q.** `C[C@]12CC[C@H](O)CC1=CC[C@@H]1[C@@H]2CC[C@@]2(C)[C@H]1CC[C@]2(C)O` [Methylandrostenediol] was tested. Which transfection efficiency did it give?
**A.** Its transfection efficiency is 1.23 ± 0.3.

**Q.** With `C=C(C)CN1CC[C@@]23c4c5ccc(O)c4O[C@H]2c2[nH]c4ccccc4c2C[C@]3(O)C1C5` [SDM25N hydrochloride] as the compound, how does the transfection efficiency read?
**A.** The transfection efficiency was 1.08 ± 0.06.

**Q.** For `c1ccc2c(c1)Nc1ccccc1S2` [Phenothiazine], which transfection efficiency is on record?
**A.** The transfection efficiency was 1.485 ± 0.012.

**Q.** How did the transfection efficiency turn out when `CN1CC[C@@H](c2ccc(F)cc2)[C@H](COc2ccc3c(c2)OCO3)C1` [N-Methylparoxetine] was run?
**A.** The transfection efficiency was 1.38 ± 0.19.

**Q.** With `CN1C(=O)CN=C(c2ccccc2)c2cc(Cl)ccc21` [Diazepam] as the compound, how does the transfection efficiency read?
**A.** Its transfection efficiency is 0.957 ± 0.14.
